Reference: PubChem BioAssay AID2685 (National Center for Advancing Translational Sciences (NCATS), 2010)
The campaign covered roughly 320,000 compounds. About 2,100 (0.66%) were called active. Inconclusive results, whose numbers are uncertain, are shown with a selection of clear calls. Calls follow the shape of the dose curve; as a rule, active = well fitted inhibition curve with a large enough effect in the signal ratio, with a control signal flat (not every such curve was filed as active); inconclusive = small, poorly fitted or top-dose-only effect, or effect the other way, or a change in a side signal; inactive = flat fitted curve, though single readings scatter; the % refers to the signal ratio. A potency beside an inconclusive call is a rough fit, not a confirmed value.

Experiment: qHTS Assay for Lipid Storage Modulators in Drosophila S3 Cells
Conditions: BODIPY lipid droplet fluorescence, 18-24 h, cells fed with added oleic acid; lipid storage change, negative = inhibition: at 46.1 µM (top of the series) unless noted
In short: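 Drosophila S3 cells got compounds at several concentrations plus oleic acid (400 uM solution). Laser-scanning cytometry with 488 nm excitation read lipid droplets at 500-530 nm and cells at 575-640 nm. Percent activity was relative to 20 uM Triacsin C.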
% is scaled to controls: 0 for no effect and ±100 for the full control effect; potency is read from the fitted curve at half-maximal effect.

SMILES	lipid storage change, negative = inhibition	Potency
O=C(OCC#CCSc1nc2ccccc2s1)c1ccco1	inconclusive: 10.7%	–
Cc1ccc(CNC(=O)CCc2ccc(S(=O)(=O)NC3CCCCC3)cc2)cc1	–	inconclusive: 29.1 µM [activator, single point]
CCN(C(=O)COC(=O)c1cc(=O)[nH]c2ccccc12)C1CCS(=O)(=O)C1 (stereo not given)	inconclusive: 12.9%	–
CC1(C)CC(=O)c2sc(NS(=O)(=O)c3ccc(Cl)cc3)nc2C1	–	inconclusive: 23.1 µM [activator, single point]
CCOc1ccc(C(=O)NCCCN(CC)CC)cc1	inconclusive: -11%	–
O=C(NCc1ccc(Cl)cc1)C(=O)NCC1OCCN1S(=O)(=O)c1cccs1 (stereo not given)	inconclusive: 4.53%	–
c1ccc(C2CC(c3ccccc3)C(c3ccccc3)N2)cc1 (stereo not given)	–	inconclusive: 18.4 µM [activator, partial curve]
COC(=O)c1sccc1NC(=O)CC1NCCNC1=O (stereo not given)	inconclusive: -11.7%	–
O=C1CN(C(=O)c2ccc(Br)o2)C(c2ccccc2)c2cc(F)ccc2N1 (stereo not given)	inconclusive: 41.3%	–
COc1ccc(NC(=O)CN(C)C(=O)c2cc(-c3ccncc3)nc3ccccc23)cc1	inconclusive: -61%	–
Cc1ccc(NC(=O)COC(=O)C2CCC2)cc1S(=O)(=O)N1CCCCC1	–	inconclusive: 6.51 µM [activator, single point]
CCC(Sc1nnnn1-c1ccccc1)C(=O)NC(C)c1ccccc1 (stereo not given)	inconclusive: 111%	–
Cc1nc(-c2ccc(F)cc2)c(CC(=O)Nc2ccc(C)c(S(=O)(=O)N3CCOCC3)c2)s1	–	inconclusive: 23.1 µM [falling, single point]
Cc1nc2nc(C)c(NS(=O)(=O)c3ccc(Cl)s3)c(=O)n2[nH]1	–	inconclusive: 23.1 µM [activator, single point]
Cc1ccc2c(c1)C1CN(C)CCC1N2C(=O)c1ccc(Cl)c(S(=O)(=O)N2CCOCC2)c1 (stereo not given)	inconclusive: 6.85%	–
C=CCn1c(-c2ccccc2)cc(SC)c(C#N)c1=O	–	inconclusive: 5.17 µM [activator, full curve, poor fit]
Cc1ccnc(NS(=O)(=O)c2ccc(NC(=O)C34CC5CC(C)(CC(C)(C5)C3)C4)cc2)n1	–	inconclusive: 0.0046 µM [falling, full curve, poor fit]
Clc1cccc(CSc2nccn2-c2ccccc2)c1	inconclusive: -13.5%	–
CCN1CCN(S(=O)(=O)c2ccc(Cl)c(C(=O)NC3CC3)c2)CC1	inconclusive: 2.14%	–
Cc1cc(NCCO)nc(-n2nc(C)cc2C)n1	inconclusive: 5.9%	–
S=C(NC1CCCCC1)N1CCOCCOCCN(C(=S)NC2CCCCC2)CCOCCOCC1	–	inconclusive: 23.1 µM [falling, partial curve]
CCC(C)n1c(SCC(=O)NCCc2ccc(S(N)(=O)=O)cc2)nc2ccsc2c1=O (stereo not given)	inconclusive: -2.56%	–
CCCOc1ccc(-c2nc(C#N)c(N3CCC(C(N)=O)CC3)o2)cc1	inconclusive: -15.7%	–
c1ccc(-c2csc3ncnc(N4CCOCC4)c23)cc1	inactive: -7.17%	–
CCCCOc1ccc(C(=O)Nc2ccc3c(c2)OCO3)cc1	inconclusive: 22.8%	–

SMILES	lipid storage change, negative = inhibition	Potency
Cc1nc(NC(=O)c2c(-c3ccccc3Cl)noc2C)sc1C	inconclusive: -35.4%	–
CCCCNC(=S)Nc1ccc2nc3n(c(=O)c2c1)CCCCC3	inconclusive: -21.5%	–
CC(NC(=O)CSc1nnc(-c2cc3cc(Cl)ccc3o2)n1C)c1ccccc1 (stereo not given)	–	inconclusive: 23.1 µM [falling, single point]
O=C(Nc1ccc([N+](=O)[O-])cc1Cl)c1cc(Cl)ccc1O	inconclusive: -96.7%	–
COc1ccc(NS(=O)(=O)c2cccc(C(=O)NNC(=O)c3ccc(=O)[nH]c3)c2)cc1	inconclusive: -34.6%	–
CCC(C(=O)Nc1cccnc1)n1c(=O)[nH]c2ccccc2c1=O (stereo not given)	–	active: 18.4 µM
CCCN1CCc2nc(SCC(=O)Nc3ccc(C)c(Cl)c3)[nH]c(=O)c2C1	–	inconclusive: 29.1 µM [falling, single point]
O=C(Cc1cccc2ccccc12)Nc1ccc2c(c1)C(=O)NC2=O	inconclusive: 13.2% [at 9.22 µM]	–
Cc1ccc(-c2nnn(CC(=O)NC3CCN(Cc4ccccc4)CC3)n2)cc1	inconclusive: -16.6%	–
Cc1ccc(C)c(OCC(=O)Nn2c(C)nc3ccccc3c2=O)c1	inconclusive: 21.2%	–
CCCCC1=CC2=C(c3ccco3)C(=O)C(C)(OC(=O)c3ccc(OC)cc3)C(=O)C2=CN1CCCOC(C)C (stereo not given)	inconclusive: -36.1%	–
CCN(CC(=O)NCc1ccc(F)cc1)C(=O)C1CCN(S(=O)(=O)c2ccc(C(C)C)cc2)CC1	inconclusive: -63.4%	–
OCCn1c(CSc2nc3ccccc3n2CCO)nc2ccccc21	inconclusive: 13.8%	–
COc1ccc(OCCOc2ccc(S(=O)(=O)N3CCCC3)cc2C(N)=O)cc1	–	inconclusive: 0.58 µM [activator, full curve]
O=C(O)CN1C(=O)c2ccc(Oc3ccc([N+](=O)[O-])cc3)cc2C1=O	–	inconclusive: 23.1 µM [activator, single point]
CS(=O)(=O)N(CC(=O)N/N=C/c1cc([N+](=O)[O-])ccc1Cl)c1ccccc1	–	inconclusive: 1.84 µM [activator, partial curve]
CCOC(=O)N1CCN(C(=O)COC(=O)c2cc(Cl)c(O)c(Cl)c2)CC1	inconclusive: 1.81%	–
CC1=CCC2C(=O)N(c3cccc(C(=O)Nc4ccccc4Cl)c3)C(=O)C2C1 (stereo not given)	–	inconclusive: 31.6 µM [falling, partial curve, poor fit]
Cn1c(CCNC(=O)c2ccccc2)nc2cc(NC(=O)c3ccco3)ccc21	–	inconclusive: 2.06 µM [activator, partial curve, poor fit]
Nc1nc(Nc2ccccc2)nc(NCc2ccccc2)c1[N+](=O)[O-]	inconclusive: -24.7%	–
O=C(Nc1ccccc1N1CCCC1)C1CCN(S(=O)(=O)c2ccc(F)cc2)CC1	inconclusive: 16%	–
Cc1ccc(NC(=O)N2CCN(C)CC2)cc1NC(=O)N1CCN(C)CC1	–	inconclusive: 0.0046 µM [falling, full curve, poor fit]
O=C(Nc1ccccc1)N1CCC(n2c(=O)[nH]c3ccccc32)CC1	inconclusive: 40.7%	–
N#Cc1cccc(NC(=O)CNc2cccc(S(=O)(=O)N3CCCC3)c2)c1	inconclusive	–
O=C(NCCC(=O)N1CCN(c2ccccn2)CC1)c1ccc(Br)cc1	inconclusive	–

Taken from above.
lipid storage change, negative = inhibition, CCCCNC(=S)Nc1ccc2nc3n(c(=O)c2c1)CCCCC3 reads inconclusive: -21.5%
lipid storage change, negative = inhibition, COc1ccc(NC(=O)CN(C)C(=O)c2cc(-c3ccncc3)nc3ccccc23)cc1 reads inconclusive: -61%
lipid storage change, negative = inhibition, CCCOc1ccc(-c2nc(C#N)c(N3CCC(C(N)=O)CC3)o2)cc1 reads inconclusive: -15.7%

Next part:

SMILES	lipid storage change, negative = inhibition	Potency
O=C(COC(=O)c1ccc(F)cc1Cl)NCc1ccco1	inconclusive	–
CCn1c(SC)nnc1C1CCN(CC(=O)Nc2ccccc2N2CCOCC2)CC1	–	inconclusive: 0.291 µM [falling, full curve]
[O-]C1=N/[N+](=C/c2ccccc2)CC1	inconclusive: 15.7%	–
Oc1c(C(c2ccccn2)N2CCCCC2)cc(Cl)c2cccnc12 (stereo not given)	inconclusive: 3.03%	–
CC(C)(C)CC(=O)Nc1nn[nH]n1	inactive: 2.6%	–
O=C(/C=C/c1ccccc1)NC(NC(=S)Nc1cccc(O)c1)C(Cl)(Cl)Cl (stereo not given)	inactive: 13.1%	–
Cc1cccc(C(=O)NCC(=O)N2CCCC2)c1	inconclusive: 55.4%	–
COc1ccc(/C=C/C(=O)c2c(O)cc(C)oc2=O)c(OC)c1	–	inconclusive: 20.6 µM [falling, single point]
O=C(CC1C(=O)NCCN1Cc1ccc(Cl)c(F)c1)NC1CCC1 (stereo not given)	–	inconclusive: 0.58 µM [falling, single point]
CC(C)c1ccccc1OCCNS(C)(=O)=O	inconclusive: 1.33%	–
Cc1cc(C)c(OCCN(C)Cc2ccccc2)c(Br)c1	inconclusive: -26%	–
O=C1c2ccccc2NC(c2ccc3c(c2)OCCO3)N1c1ccc2c(c1)OCCO2 (stereo not given)	–	inconclusive: 10.3 µM [activator, partial curve]
NC(=O)CSc1ccc(F)cc1	inconclusive: 15.8%	–
CC1(C)CC(=O)C2=C(C1)OC(N)=C(C#N)C2c1cn(-c2ccccc2)nc1-c1ccccc1 (stereo not given)	inconclusive: 23.7%	–
COc1ccc(C(=O)NNC(=O)CN2CCC(n3nnc4cc(C)ccc43)CC2)cc1	–	inconclusive: 23.1 µM [activator, single point]
CS(=O)(=O)N1CCN(c2ccc(NC(=O)c3ccc(Br)o3)cc2)CC1	inconclusive: 5.32%	–
COc1ccc(CCNCc2c(-c3ccccc3)n(C)c3ccccc23)cc1	inconclusive: -91.2%	–
CCCCCn1c(NCc2ccco2)nc2ccccc21	–	inconclusive: 7.31 µM [activator, partial curve, poor fit]
Cc1oc2nc(SCC(=O)N3CCCCC3)nc(N)c2c1C	–	inconclusive: 0.651 µM [rising, full curve]
Cc1cc(C)c(NC(=O)CNC(=O)COC(=O)C2CCN(c3ccc(C(F)(F)F)cn3)CC2)c(C)c1	inconclusive: -27.6%	–
COc1ccc(/C=C/C(=O)Nc2ccccc2C(=O)NCC(c2ccc(OC)cc2)N(C)C)cc1 (stereo not given)	–	inconclusive: 29.1 µM [activator, single point]
O/N=C(/Cc1ccccn1)c1ccccc1	inconclusive: -9.74%	–
Cc1ccccc1-n1c(SCC(=O)c2cc(C)n(C)c2C)nnc1-c1ccncc1	–	inconclusive: 0.517 µM [activator, full curve, poor fit]
CC1(C)CC(=O)C(C=NCC2CCCO2)=C(O)C1 (stereo not given)	inconclusive: -18.4%	–
COc1ccc(COCC(O)CN2CCCC(C(F)(F)F)C2)cc1 (stereo not given)	inconclusive: -80.1%	–
